Results are given in words; binding and its absence hold for the method and conditions named. Some results given as binding are weak or reduced against the parent protein; the word gives no strength.
Columns and labels:
[1] = molecular target: VWF in pig plasma (pig) (UniProt Q28833); assay: cross-reactivity of pigs with the test item; method not described
[2] = molecular target: purified vWF (ZLB Behring) (UniProt P04275); assay: PK ELISA: captured Nanobody complexed with purified vWF, detected with anti-human vWF antibody

Amino acid sequences for entries named in this document (tags omitted). Residues count along the entry.
UniProt Q28833, residues 438-2482: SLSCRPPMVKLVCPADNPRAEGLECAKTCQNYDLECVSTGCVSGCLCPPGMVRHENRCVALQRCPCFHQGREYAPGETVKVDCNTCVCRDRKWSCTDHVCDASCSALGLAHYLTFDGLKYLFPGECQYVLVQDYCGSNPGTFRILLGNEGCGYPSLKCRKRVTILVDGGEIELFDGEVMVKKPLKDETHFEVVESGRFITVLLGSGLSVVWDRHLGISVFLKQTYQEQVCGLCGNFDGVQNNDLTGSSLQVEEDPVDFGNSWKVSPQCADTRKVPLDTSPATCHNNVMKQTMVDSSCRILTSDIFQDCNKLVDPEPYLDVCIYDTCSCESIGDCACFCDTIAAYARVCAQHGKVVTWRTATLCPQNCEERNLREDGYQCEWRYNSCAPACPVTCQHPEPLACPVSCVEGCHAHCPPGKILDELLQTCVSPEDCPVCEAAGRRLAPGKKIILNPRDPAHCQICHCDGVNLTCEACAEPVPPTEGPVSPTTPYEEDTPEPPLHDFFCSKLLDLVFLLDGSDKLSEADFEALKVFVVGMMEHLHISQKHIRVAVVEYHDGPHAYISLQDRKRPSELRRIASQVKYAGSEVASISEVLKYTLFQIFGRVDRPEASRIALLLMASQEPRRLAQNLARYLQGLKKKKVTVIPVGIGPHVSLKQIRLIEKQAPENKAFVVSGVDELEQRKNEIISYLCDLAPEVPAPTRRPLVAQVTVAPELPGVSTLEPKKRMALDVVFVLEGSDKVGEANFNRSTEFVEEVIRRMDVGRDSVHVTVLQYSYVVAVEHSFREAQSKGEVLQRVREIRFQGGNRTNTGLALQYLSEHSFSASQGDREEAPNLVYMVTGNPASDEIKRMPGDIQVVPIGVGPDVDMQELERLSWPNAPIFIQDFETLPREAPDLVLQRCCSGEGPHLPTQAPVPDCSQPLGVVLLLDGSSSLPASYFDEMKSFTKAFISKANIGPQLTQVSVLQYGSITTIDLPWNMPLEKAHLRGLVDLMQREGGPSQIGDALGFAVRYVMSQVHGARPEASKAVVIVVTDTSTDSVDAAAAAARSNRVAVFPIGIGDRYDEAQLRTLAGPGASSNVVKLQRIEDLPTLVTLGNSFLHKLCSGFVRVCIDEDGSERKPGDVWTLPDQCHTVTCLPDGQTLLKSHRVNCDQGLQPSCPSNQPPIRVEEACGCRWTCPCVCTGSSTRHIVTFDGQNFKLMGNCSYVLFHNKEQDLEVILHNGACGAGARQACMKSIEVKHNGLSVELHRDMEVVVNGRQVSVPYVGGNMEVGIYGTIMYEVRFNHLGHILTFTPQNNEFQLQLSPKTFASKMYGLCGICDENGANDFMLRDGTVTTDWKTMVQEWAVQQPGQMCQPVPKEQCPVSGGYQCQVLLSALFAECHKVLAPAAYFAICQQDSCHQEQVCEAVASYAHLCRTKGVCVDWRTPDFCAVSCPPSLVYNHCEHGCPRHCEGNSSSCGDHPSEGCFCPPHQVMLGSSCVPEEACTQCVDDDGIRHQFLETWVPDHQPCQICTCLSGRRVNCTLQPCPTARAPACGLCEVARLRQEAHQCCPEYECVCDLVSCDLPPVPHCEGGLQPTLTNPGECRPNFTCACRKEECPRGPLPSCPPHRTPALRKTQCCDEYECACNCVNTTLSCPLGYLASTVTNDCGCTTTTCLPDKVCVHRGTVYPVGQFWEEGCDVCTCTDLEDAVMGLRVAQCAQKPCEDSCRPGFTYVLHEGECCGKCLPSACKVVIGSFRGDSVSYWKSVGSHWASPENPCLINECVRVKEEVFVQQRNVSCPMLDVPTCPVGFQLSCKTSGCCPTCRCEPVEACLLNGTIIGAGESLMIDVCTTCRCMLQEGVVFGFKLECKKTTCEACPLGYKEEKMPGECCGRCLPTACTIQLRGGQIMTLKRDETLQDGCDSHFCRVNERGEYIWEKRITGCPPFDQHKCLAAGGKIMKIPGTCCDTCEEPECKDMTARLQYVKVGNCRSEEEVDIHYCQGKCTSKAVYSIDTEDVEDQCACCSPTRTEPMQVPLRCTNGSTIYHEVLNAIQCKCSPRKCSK
UniProt P04275, residues 764-2813: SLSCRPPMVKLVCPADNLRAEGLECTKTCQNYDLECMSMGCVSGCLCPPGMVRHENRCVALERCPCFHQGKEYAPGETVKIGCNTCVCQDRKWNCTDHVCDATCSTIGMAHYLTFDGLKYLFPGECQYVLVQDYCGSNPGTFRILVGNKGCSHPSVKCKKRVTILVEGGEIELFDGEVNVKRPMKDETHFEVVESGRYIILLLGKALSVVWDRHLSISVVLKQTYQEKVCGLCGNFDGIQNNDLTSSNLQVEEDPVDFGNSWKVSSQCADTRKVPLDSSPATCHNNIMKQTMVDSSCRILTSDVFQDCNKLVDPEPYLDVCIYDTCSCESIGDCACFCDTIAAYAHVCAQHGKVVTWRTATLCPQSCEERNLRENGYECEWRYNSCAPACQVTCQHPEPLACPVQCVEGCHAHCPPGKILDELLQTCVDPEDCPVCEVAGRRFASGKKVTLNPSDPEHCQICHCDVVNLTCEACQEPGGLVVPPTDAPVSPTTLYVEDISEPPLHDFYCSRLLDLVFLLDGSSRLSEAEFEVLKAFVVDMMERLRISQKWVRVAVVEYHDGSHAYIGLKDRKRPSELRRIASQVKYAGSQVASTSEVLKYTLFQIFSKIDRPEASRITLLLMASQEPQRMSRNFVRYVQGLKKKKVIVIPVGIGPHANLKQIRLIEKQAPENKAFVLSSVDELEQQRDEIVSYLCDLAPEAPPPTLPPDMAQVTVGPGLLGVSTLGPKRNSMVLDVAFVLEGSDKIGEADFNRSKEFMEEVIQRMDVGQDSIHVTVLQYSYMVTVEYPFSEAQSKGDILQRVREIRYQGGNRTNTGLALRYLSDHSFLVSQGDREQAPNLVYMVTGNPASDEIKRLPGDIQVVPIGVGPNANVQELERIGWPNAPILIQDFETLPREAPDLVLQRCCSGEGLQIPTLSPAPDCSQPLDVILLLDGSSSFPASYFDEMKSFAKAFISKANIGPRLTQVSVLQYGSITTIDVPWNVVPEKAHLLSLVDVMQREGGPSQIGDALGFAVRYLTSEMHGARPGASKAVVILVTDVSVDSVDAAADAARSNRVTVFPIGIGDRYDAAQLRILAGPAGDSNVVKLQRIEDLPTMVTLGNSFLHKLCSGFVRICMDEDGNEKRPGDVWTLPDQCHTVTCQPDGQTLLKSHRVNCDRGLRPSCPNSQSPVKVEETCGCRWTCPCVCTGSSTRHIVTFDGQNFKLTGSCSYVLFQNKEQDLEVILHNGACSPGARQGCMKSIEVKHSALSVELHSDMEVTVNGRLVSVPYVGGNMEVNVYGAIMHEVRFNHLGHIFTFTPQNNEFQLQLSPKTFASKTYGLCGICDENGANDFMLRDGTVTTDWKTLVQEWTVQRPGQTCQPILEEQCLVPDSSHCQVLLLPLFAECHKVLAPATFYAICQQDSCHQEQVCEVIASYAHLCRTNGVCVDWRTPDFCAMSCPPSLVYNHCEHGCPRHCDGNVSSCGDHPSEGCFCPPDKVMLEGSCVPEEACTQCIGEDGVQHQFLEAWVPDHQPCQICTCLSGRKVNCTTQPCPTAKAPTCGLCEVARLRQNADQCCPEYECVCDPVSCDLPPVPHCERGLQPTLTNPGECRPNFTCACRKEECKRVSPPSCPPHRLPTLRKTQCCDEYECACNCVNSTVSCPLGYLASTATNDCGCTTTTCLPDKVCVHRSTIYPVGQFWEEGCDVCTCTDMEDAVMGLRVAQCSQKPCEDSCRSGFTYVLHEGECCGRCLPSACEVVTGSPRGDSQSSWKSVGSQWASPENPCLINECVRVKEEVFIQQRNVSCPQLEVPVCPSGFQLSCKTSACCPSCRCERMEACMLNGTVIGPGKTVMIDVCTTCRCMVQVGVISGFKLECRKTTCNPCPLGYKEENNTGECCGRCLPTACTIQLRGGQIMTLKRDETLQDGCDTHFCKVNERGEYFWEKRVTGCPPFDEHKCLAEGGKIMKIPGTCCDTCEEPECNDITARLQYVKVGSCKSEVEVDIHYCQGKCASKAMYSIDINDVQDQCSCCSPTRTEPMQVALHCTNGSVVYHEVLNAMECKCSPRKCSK

binding [1]: binds
binding [2]: binds
B1: Nanobody ALX0081sv1 (vWF0002) (VHH)
chain: DVQLVESGGGLVQPGGSLRLSCAASGRTFSYNPMGWFRQAPGKGRELVAAISRTGGSTYYPESVEGRFTISRDNAKRTVYLQMNSLRAEDTAVYYCAAAGVRAEQGRVRTLPSEYTFWGQGTQVTVSSAAAEVQLVESGGGLVQPGGSLRLSCAASGRTFSYNPMGWFRQAPGKGRELVAAISRTGGSTYYPESVEGRFTISRDNAKRTVYLQMNSLRAEDTAVYYCAAAGVRAEQGRVRTLPSEYTFWGQGTQVTVSS
